Source: the supplement of paper PMC10849652
The list shows a part of the results.

Sequences of proteins named here, by UniProt entry; tags and fusion partners are left off. A change or cut given only in a name is not applied to a line headed by its entry.
UniProt P52655, whole entry, looked up: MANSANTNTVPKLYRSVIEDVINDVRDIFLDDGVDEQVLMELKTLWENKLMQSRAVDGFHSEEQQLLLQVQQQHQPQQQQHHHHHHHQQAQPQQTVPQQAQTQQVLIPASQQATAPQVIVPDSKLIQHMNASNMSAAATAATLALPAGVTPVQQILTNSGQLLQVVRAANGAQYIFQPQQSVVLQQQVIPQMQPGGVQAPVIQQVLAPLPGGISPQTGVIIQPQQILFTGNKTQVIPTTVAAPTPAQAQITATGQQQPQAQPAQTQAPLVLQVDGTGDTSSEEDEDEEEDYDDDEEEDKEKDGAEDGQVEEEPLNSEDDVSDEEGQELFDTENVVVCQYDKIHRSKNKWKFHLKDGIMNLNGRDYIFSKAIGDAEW
UniProt Q5T447: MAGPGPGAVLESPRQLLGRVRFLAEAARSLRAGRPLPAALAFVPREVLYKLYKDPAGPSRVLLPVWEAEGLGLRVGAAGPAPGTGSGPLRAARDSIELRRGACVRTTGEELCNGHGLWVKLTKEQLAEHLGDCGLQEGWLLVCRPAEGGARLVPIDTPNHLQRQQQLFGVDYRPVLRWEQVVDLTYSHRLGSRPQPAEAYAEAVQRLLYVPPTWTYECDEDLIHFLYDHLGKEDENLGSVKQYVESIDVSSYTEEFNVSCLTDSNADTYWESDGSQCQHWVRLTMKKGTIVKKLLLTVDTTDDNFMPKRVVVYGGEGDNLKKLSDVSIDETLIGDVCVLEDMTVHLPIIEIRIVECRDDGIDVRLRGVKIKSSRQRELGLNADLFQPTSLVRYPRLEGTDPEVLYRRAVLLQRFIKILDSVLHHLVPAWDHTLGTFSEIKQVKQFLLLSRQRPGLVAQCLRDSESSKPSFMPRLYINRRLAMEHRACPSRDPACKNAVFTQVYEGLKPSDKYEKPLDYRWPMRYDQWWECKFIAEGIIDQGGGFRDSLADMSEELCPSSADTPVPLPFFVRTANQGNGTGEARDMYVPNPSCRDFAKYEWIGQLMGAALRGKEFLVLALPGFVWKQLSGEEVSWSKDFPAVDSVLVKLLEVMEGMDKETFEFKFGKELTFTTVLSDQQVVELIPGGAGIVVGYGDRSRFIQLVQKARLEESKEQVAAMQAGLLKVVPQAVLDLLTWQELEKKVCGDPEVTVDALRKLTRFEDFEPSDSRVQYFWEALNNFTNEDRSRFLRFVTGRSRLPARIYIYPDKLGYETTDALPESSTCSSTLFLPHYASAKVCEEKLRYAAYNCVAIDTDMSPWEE
UniProt P48637: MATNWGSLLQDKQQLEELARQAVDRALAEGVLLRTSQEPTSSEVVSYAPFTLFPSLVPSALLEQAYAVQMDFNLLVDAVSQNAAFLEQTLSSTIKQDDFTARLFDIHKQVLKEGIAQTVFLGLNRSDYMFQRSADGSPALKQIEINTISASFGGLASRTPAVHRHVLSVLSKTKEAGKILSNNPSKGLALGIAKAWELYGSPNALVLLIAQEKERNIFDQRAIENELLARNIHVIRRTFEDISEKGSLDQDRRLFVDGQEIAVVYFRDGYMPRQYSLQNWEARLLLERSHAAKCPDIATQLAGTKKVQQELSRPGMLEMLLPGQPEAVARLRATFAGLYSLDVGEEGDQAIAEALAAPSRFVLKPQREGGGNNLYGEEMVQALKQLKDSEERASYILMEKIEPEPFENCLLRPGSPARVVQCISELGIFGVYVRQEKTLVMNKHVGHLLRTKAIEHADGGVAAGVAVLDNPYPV
UniProt Q9BX10: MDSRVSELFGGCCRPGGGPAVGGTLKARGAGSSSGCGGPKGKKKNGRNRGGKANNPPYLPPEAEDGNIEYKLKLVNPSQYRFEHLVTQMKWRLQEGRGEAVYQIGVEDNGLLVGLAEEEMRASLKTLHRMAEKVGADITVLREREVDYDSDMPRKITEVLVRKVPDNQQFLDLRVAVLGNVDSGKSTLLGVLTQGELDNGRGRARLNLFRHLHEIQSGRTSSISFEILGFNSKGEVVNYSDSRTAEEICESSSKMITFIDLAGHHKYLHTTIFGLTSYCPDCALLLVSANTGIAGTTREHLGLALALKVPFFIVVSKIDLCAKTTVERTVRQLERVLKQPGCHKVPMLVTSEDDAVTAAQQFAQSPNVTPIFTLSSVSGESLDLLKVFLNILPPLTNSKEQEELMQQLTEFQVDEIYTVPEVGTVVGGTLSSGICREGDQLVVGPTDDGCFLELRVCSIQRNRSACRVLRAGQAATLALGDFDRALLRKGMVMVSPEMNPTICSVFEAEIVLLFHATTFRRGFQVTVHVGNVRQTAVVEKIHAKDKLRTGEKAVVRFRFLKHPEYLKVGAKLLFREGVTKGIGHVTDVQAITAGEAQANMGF
UniProt Q03013: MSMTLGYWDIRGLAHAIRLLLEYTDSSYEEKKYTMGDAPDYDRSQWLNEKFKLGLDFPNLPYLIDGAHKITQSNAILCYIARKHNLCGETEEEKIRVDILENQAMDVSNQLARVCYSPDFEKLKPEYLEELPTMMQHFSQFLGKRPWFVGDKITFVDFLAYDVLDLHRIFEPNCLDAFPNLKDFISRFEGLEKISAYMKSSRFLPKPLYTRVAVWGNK
UniProt P16402, whole entry, looked up: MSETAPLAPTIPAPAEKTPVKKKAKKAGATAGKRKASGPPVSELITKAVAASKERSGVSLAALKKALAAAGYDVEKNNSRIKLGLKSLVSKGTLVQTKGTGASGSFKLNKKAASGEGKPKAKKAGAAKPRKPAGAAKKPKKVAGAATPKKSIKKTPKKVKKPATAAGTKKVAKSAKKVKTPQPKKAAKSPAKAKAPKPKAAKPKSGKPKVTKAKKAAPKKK
UniProt Q6PII5: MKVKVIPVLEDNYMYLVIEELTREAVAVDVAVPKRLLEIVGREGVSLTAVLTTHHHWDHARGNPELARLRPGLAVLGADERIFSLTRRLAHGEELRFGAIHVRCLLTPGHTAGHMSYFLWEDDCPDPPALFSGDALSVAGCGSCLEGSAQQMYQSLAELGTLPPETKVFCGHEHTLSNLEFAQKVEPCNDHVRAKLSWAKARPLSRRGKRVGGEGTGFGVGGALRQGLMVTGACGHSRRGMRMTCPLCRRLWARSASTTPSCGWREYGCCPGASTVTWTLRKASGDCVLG
UniProt Q6AI08: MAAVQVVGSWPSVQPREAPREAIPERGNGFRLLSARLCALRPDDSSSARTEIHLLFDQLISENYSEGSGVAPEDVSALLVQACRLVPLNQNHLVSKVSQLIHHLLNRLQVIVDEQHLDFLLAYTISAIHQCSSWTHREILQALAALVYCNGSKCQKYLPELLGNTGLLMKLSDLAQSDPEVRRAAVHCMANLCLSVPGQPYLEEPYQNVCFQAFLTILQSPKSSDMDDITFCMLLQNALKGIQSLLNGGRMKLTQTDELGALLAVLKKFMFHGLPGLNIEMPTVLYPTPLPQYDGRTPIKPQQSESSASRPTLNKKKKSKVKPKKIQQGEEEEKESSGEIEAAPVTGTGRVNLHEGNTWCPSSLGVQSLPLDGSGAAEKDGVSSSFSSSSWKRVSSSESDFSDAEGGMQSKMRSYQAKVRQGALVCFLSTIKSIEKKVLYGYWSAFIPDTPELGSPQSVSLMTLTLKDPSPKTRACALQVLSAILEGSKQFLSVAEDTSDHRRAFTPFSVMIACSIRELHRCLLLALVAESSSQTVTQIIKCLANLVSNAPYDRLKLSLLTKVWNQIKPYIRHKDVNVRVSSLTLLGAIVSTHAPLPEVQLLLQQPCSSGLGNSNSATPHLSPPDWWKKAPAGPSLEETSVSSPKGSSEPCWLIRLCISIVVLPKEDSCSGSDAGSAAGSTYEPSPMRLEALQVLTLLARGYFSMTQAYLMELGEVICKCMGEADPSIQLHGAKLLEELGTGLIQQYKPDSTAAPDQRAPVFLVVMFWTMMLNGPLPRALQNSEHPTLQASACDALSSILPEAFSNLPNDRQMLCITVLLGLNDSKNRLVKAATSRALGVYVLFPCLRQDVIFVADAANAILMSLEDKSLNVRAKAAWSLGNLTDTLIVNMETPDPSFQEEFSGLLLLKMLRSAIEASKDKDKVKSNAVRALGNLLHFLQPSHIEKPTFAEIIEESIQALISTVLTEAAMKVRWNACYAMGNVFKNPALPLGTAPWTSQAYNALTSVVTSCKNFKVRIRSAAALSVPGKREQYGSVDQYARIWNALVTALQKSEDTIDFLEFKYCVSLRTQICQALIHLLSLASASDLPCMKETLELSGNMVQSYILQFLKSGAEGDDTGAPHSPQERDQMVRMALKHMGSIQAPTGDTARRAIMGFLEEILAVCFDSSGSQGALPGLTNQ
UniProt Q9H0R4: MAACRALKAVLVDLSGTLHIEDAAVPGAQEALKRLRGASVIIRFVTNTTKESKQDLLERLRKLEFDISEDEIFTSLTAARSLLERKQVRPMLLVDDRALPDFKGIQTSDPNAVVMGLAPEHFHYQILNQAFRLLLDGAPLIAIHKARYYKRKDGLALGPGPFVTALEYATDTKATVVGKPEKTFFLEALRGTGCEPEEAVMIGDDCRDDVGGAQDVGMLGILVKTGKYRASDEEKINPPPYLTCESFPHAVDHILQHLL
UniProt P56524: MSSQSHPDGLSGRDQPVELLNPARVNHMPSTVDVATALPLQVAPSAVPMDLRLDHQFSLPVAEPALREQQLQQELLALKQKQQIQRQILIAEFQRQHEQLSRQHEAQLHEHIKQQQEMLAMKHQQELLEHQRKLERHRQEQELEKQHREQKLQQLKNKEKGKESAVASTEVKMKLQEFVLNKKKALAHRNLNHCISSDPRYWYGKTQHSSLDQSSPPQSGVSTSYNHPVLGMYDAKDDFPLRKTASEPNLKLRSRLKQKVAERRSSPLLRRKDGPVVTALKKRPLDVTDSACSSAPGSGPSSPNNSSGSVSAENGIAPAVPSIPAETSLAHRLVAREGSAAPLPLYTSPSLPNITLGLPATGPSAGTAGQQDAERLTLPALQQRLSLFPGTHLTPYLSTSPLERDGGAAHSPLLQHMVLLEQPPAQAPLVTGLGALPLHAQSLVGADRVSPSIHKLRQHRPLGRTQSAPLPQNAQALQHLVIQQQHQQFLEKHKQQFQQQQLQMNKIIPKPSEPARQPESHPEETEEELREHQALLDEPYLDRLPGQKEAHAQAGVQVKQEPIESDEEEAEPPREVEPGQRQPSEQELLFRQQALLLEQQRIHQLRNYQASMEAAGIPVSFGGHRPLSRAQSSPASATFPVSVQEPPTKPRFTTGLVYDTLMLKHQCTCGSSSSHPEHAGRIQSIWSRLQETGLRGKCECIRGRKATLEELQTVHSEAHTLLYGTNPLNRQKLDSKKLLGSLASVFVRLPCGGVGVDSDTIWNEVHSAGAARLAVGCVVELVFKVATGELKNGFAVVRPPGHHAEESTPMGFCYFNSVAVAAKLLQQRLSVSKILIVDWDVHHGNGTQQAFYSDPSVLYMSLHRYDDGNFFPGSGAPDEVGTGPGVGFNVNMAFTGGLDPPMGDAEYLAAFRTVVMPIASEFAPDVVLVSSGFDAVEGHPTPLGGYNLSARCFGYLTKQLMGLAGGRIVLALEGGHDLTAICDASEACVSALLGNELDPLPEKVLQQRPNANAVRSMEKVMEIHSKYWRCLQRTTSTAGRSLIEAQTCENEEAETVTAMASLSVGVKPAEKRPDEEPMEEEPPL
UniProt P78417: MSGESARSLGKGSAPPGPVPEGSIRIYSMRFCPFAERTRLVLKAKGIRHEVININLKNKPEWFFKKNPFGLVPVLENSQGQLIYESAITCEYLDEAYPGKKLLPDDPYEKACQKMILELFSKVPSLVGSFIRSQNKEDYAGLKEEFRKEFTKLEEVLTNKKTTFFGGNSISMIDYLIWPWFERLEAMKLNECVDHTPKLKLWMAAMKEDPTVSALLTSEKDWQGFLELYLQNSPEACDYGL
UniProt P16401, whole entry, looked up: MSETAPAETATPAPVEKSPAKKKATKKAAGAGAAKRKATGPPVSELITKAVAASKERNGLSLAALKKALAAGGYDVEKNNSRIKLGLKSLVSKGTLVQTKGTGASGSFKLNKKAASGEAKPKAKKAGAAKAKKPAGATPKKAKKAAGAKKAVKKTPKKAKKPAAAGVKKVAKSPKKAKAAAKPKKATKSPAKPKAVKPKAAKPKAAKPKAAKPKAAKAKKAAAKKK
UniProt P14317: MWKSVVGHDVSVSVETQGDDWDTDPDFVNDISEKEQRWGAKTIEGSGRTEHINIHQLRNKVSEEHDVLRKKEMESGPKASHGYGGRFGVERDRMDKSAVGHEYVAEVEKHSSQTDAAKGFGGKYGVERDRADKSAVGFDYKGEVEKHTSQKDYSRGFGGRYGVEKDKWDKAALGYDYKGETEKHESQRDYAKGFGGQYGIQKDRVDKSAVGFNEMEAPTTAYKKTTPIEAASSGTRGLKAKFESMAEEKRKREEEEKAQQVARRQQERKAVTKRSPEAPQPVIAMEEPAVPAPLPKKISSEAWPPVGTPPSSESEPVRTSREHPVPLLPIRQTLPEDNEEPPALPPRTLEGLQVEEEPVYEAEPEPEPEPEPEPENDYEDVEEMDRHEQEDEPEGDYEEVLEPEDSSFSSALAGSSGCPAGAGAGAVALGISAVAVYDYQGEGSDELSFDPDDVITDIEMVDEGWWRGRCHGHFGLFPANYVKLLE

Legend:
Assay in all cases: log2 fold change, soluble protein after heating vs DMSO (PISA); higher = thermal stabilisation; K562 cells, 10 uM, 30 min; active = over 0.2 and 3.5 SD of the protein, either way, in both replicates (recomputed)
[1] = compound: C#Cc1cccc(Nc2ncnc3cc(OCCOC)c(OCCOC)cc23)c1 [erlotinib]
In short: (§1)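 Quantification of soluble protein used TMTpro 16plex LC-MS/MS, with channel sums equalised. Samples were the supernatant after 21,000xg for 90 min of pooled aliquots from K562 cells (2×10^6 cells/mL) treated with 10 μM compound for 30 min, heated for 3 min over 48°C-58°C, and extracted in PBS with 0.5% NP-40 at 4°C. Values, from duplicates, describe thermal stability against control samples on a log2 fold-change scale.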

[2] = compound: C/C(=N\NC(=O)C1=CC(=CC=C1)S(=O)(=O)N2CCOCC2)/C3=C(C=CC(=C3)Cl)O
In short: as §1

[3] = compound: C1=CC(=C(C=C1Cl)C2=NC3=NC=CN=C3C(=N2)NC4=CC=NC=C4)F
In short: as §1

[4] = compound: C1=CC(=CC=C1C2=NC3=C(N2)C=C(C=C3)C(=O)N)OC4=CC=C(C=C4)Cl
In short: as §1

[5] = compound: C1=CC2=C(C=CC(=C2)/C=C\3/C(=O)NC(=NCC4=CC=CS4)S3)N=C1
In short: as §1

[6] = compound: C1=CC2=NC=CN=C2C=C1/C=C/3\C(=O)NC(=O)S3
In short: as §1

[7] = compound: C1=CC=C(C=C1)C2=NC(=C(N2)C3=CC=NC=C3)C4=CC(=C(C=C4)Cl)O
In short: as §1

[8] = compound: C1=CC=C2C(=C1)C3=NNC4=CC=CC(=C43)C2=O
In short: as §1

[9] = compound: C1CCN(C1)C(=O)NC2=CC=CC(=C2)NC3=NC=C(C(=N3)NCCC4=CN=CN4)Br
In short: as §1

[10] = compound: C1CN(CCC1(CC2=CC=C(C=C2)Cl)N)C3=NC=NC4=C3C=CN4
In short: as §1

Measured: log2 fold change

HEATR1 (UniProt Q9H583)
inactive: [1] -0.198 | [2] -0.267 | [3] -0.14 | [4] 0.116 | [5] 0.178 | [6] 0.106 | [7] -0.037 | [8] 0.028 | [9] 0.044 | [10] -0.17

HAGH (UniProt Q16775)
inactive: [1] 0.031 | [2] -0.13 | [3] -0.067 | [4] 0.018 | [5] 0.071 | [6] 0.011 | [7] -0.005 | [8] 0.015 | [9] 0.008 | [10] 0.032

HARS (UniProt P12081)
inactive: [1] -0.011 | [2] -0.001 | [3] 0.034 | [4] -0.007 | [5] -0.01 | [6] 0.014 | [7] -0.025 | [8] -0.019 | [9] 0.026 | [10] 0.036

HELB (UniProt Q8NG08)
inactive: [1] 0.128 | [2] 0.122 | [3] 0.02 | [4] -0.065 | [5] 0.008 | [6] -0.03 | [7] 0.019 | [8] -0.022 | [9] -0.06 | [10] 0.087

GTF2A1 (UniProt P52655)
inactive: [1] -0.011 | [2] -0.052 | [3] 0.001 | [4] -0.011 | [5] -0.094 | [6] 0.034 | [7] -0.021 | [8] -0.029 | [9] -0.024 | [10] 0.036

GSTP1 (UniProt P09211)
inactive: [1] 0.021 | [2] 0.038 | [3] 0.013 | [4] -0.016 | [5] 0.041 | [6] 0.037 | [7] 0.014 | [8] 0.005 | [9] 0.021 | [10] 0.057

Random excerpt: 2 entries already listed.
HAGH (UniProt Q16775)
inactive: [1] 0.031 | [2] -0.13 | [3] -0.067 | [4] 0.018 | [5] 0.071 | [6] 0.011 | [7] -0.005 | [8] 0.015 | [9] 0.008 | [10] 0.032

GTF2A1 (UniProt P52655)
inactive: [1] -0.011 | [2] -0.052 | [3] 0.001 | [4] -0.011 | [5] -0.094 | [6] 0.034 | [7] -0.021 | [8] -0.029 | [9] -0.024 | [10] 0.036

Following part

HBS1L (UniProt Q9Y450)
inactive: [1] 0.043 | [2] 0.078 | [3] 0.046 | [4] -0.009 | [5] 0.047 | [6] -0.009 | [7] -0.002 | [8] 0.019 | [9] 0.012 | [10] -0.008

HECTD3 (UniProt Q5T447)
inactive: [1] 0.197 | [2] -0.065 | [3] -0.116 | [4] 0.061 | [5] 0.028 | [6] -0.035 | [7] -0.015 | [8] -0.065 | [9] 0.007 | [10] 0.019

HADH isoform 2 (UniProt Q16836)
inactive: [1] 0.006 | [2] 0.008 | [3] 0.082 | [4] 0.047 | [5] 0.005 | [6] 0 | [7] -0.017 | [8] 0.05 | [9] -0.009 | [10] 0.028

H2AFX (UniProt P16104)
inactive: [1] 0.05 | [2] -0.243 | [3] -0.54 | [4] 0.072 | [5] 0.014 | [6] 0.274 | [7] -0.087 | [8] -0.049 | [9] 0.231 | [10] -0.319

HCFC1 isoform 4 (UniProt P51610)
inactive: [1] -0.011 | [2] 0.014 | [3] 0.023 | [4] -0.018 | [5] 0.005 | [6] 0.009 | [7] 0.014 | [8] -0.009 | [9] -0.029 | [10] -0.067

GTF2B (UniProt Q00403)
inactive: [1] 0.069 | [2] 0.136 | [3] 0.048 | [4] -0.035 | [5] 0.149 | [6] 0.027 | [7] -0.033 | [8] 0.01 | [9] -0.065 | [10] -0.046

GSS (UniProt P48637)
inactive: [1] 0.044 | [2] -0.001 | [3] 0.018 | [4] -0.01 | [5] 0.019 | [6] 0.002 | [7] -0.025 | [8] -0.023 | [9] 0.025 | [10] 0.03

GTPBP2 (UniProt Q9BX10)
inactive: [1] 0.073 | [2] -0.009 | [3] -0.033 | [4] -0.085 | [5] 0.043 | [6] -0.005 | [7] 0.004 | [8] -0.006 | [9] 0.009 | [10] -0.03

GSTM4 (UniProt Q03013)
inactive: [1] 0.084 | [2] -0.029 | [3] 0.217 | [4] -0.002 | [5] -0.038 | [6] 0.268 | [7] -0.031 | [8] -0.128 | [9] 0.018 | [10] 0.062

HDAC3 isoform 2 (UniProt O15379)
inactive: [1] -0.068 | [2] 0.084 | [3] 0.055 | [4] 0 | [5] 0.041 | [6] -0.075 | [7] -0.071 | [8] -0.031 | [9] -0.046 | [10] 0.014

H1-3 (UniProt P16402)
inactive: [1] -0.169 | [2] -0.13 | [3] -0.489 | [4] 0.015 | [5] -0.098 | [6] -0.021 | [7] 0.007 | [8] 0.113 | [9] -0.059 | [10] -0.386

HAGHL isoform 2 (UniProt Q6PII5)
inactive: [1] 0.173 | [2] 0.052 | [3] 0.125 | [4] 0.009 | [5] -0.079 | [6] 0.015 | [7] 0.183 | [8] -0.023

HAX1 (UniProt O00165)
inactive: [1] 0.07 | [2] -0.006 | [3] -0.024 | [4] -0.014 | [5] 0.087 | [6] 0.008 | [7] 0.06 | [8] 0.156 | [9] 0.027 | [10] -0.078

HEATR6 (UniProt Q6AI08)
inactive: [1] 0.013 | [2] 0 | [3] 0.06 | [4] 0.007 | [5] 0.056 | [6] -0.105 | [7] 0.015 | [8] 0.034 | [9] 0.066 | [10] -0.149

HDHD2 (UniProt Q9H0R4)
inactive: [1] 0.029 | [2] 0 | [3] 0.133 | [4] 0.009 | [5] 0.013 | [6] 0.046 | [7] -0.015 | [8] -0.018 | [9] -0.009 | [10] 0.037

HDAC4 (UniProt P56524)
inactive: [1] 0.133 | [2] -0.146 | [3] -0.067 | [4] -0.151 | [5] -0.042 | [6] 0.023 | [7] -0.116 | [8] -0.02 | [9] -0.207 | [10] 0.173

GSTO1 (UniProt P78417)
inactive: [1] -0.009 | [2] 0.007 | [3] 0.065 | [4] -0.001 | [5] 0.006 | [7] 0.095 | [8] 0.031 | [9] -0.005 | [10] 0.008
active: [6] 0.278

H1-5 (UniProt P16401)
inactive: [1] -0.066 | [2] -0.261 | [3] -0.541 | [4] 0.016 | [5] -0.123 | [6] -0.003 | [7] -0.07 | [8] 0.013 | [9] -0.051 | [10] -0.37

HCLS1 (UniProt P14317)
inactive: [1] 0.023 | [2] 0.014 | [3] 0.016 | [4] 0 | [5] 0.019 | [6] 0.047 | [7] -0.03 | [8] -0.006 | [9] -0.001 | [10] 0.015

HDGFL3 (UniProt Q9Y3E1)
inactive: [1] 0.013 | [2] -0.016 | [3] -0.01 | [4] 0.095 | [5] 0.042 | [6] 0.007 | [7] -0.081 | [8] -0.006 | [9] 0.072 | [10] -0.023

H2AZ1 (UniProt P0C0S5)
inactive: [1] -0.025 | [2] -0.13 | [3] -0.554 | [4] -0.014 | [5] -0.087 | [6] 0.169 | [7] -0.189 | [8] 0.036 | [9] 0.07 | [10] 0.037

H1-4 (UniProt P10412)
inactive: [1] -0.155 | [2] -0.189 | [3] -0.507 | [4] 0 | [5] -0.152 | [6] -0.048 | [7] -0.076 | [8] 0.042 | [9] -0.081 | [10] -0.406

GTF2E2 (UniProt P29084)
inactive: [1] 0.028 | [2] 0.137 | [3] 0.048 | [4] -0.001 | [5] 0.09 | [6] 0.003 | [7] -0.002 | [8] 0.03 | [9] -0.03 | [10] -0.13

HDAC1 (UniProt Q13547)
inactive: [2] 0.015 | [3] 0.011 | [4] -0.01 | [5] 0.16 | [6] 0.004 | [7] 0.021 | [8] -0.055 | [9] -0.004 | [10] -0.018
active: [1] 1.14
